Data from patent US10196390B2, “TYK2 inhibitors and uses thereof” (Nimbus Lakshmi, Inc., priority 2014, dated 2019).
At least one structure is not confirmed: it was looked up by name or label, or the drawing left a doubt.

Test system: IL-12 induced IFNγ
Assay: Ex vivo mouse IL-12 induced IFNγ studies
Format: in vivo, C57/BL6 mice
Settings: ex vivo mouse model, doses of ≤10 mg/kg
Experimental: C57/BL6 mice were given a single oral dose of either vehicle or different doses of compound at a volume of 10 mL/kg. 30 minutes to 1 hour after dosing, animals were euthanized and blood was collected via vena cava into sodium heparin blood collection tubes and inverted several times. Blood was then plated on anti-CD3 coated plates and stimulated with 2 ng/ml of mouse IL-12 in RPMI media for 24 hours at 37° C. in humidified incubator with 5% CO2. At the end of the incubation, blood was centrifuged at 260 g for 5 minutes to collect supernatant. IFNγ concentration in the supernatant was determined with mouse IFNγ MSD kit per manufacture's instruction (Meso Scale Discovery). At the time of the blood collection, plasma was collected for drug level analysis by LC-MS/MS.

CCNC(=O)c1ccc(Nc2nc(-c3c(F)cccc3F)nc3c2C(=O)NC3)cc1 [Compound I-195, 4-((2-(2,6-difluorophenyl)-5-oxo-6,7-dihydro-5H-pyrrolo[3,4-d]pyrimidin-4-yl)amino)-N-ethylbenzamide]
IL-12 induced IFNγ production: significantly inhibit
